Results taken from paper PMC5852132.
These are yes or no findings as the source states them, for the method shown. Binding seen in cells or lysates may run through a third protein. Some binding calls cover weakened binding; strength is not graded here.

The chains behind the UniProt entries cited, without tags or fusion partners.
UniProt P42227: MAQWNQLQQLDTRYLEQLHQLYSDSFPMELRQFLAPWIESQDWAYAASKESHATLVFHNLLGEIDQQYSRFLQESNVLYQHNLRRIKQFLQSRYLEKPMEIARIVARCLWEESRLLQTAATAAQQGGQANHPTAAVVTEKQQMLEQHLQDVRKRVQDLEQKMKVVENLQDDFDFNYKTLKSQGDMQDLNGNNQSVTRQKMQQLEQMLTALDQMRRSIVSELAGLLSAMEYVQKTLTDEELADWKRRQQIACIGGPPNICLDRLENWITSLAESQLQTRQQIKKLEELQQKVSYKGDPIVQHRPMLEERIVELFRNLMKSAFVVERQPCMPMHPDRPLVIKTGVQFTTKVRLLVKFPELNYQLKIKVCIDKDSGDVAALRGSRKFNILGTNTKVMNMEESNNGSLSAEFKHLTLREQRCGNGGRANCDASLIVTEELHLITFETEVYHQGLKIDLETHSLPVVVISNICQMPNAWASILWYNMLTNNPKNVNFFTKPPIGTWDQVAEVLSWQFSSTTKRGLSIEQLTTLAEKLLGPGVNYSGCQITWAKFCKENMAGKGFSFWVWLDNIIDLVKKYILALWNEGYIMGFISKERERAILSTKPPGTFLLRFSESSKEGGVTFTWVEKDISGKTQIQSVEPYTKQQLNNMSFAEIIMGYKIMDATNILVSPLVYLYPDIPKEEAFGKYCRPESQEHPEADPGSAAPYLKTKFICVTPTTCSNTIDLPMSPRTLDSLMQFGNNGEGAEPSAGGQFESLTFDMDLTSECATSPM
UniProt P40763: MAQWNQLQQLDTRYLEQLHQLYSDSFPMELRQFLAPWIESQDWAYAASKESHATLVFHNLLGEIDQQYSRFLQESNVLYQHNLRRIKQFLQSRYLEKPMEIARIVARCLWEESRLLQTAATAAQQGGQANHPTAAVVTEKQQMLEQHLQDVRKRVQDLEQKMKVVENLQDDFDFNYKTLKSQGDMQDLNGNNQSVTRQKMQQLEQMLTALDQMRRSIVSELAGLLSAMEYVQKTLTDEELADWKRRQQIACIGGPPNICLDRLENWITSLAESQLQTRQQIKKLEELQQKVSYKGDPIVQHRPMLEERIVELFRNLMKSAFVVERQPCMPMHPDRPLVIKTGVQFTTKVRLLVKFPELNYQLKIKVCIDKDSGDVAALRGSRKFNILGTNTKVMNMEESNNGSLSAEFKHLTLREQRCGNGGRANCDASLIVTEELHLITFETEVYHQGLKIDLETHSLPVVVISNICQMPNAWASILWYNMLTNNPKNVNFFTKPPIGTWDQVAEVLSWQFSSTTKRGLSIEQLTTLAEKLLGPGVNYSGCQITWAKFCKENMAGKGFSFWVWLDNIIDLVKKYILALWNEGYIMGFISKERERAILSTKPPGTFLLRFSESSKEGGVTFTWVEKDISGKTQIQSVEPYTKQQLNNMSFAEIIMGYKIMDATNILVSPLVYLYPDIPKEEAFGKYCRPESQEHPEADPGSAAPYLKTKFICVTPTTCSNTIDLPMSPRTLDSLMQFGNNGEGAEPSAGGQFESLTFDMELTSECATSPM
UniProt P70288: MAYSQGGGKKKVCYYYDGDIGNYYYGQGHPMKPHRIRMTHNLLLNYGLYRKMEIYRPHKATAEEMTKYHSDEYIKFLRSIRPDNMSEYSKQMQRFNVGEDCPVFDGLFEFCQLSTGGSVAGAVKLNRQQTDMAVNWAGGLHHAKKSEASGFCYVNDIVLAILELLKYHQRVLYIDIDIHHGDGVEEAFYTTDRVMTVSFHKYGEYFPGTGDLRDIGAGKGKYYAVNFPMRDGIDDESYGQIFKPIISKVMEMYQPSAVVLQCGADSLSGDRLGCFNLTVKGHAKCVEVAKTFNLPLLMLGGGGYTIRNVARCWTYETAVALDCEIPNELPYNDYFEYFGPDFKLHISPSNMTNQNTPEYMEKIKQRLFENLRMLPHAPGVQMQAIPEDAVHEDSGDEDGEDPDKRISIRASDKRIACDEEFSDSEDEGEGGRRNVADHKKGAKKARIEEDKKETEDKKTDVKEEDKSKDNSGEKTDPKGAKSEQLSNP
UniProt Q09472: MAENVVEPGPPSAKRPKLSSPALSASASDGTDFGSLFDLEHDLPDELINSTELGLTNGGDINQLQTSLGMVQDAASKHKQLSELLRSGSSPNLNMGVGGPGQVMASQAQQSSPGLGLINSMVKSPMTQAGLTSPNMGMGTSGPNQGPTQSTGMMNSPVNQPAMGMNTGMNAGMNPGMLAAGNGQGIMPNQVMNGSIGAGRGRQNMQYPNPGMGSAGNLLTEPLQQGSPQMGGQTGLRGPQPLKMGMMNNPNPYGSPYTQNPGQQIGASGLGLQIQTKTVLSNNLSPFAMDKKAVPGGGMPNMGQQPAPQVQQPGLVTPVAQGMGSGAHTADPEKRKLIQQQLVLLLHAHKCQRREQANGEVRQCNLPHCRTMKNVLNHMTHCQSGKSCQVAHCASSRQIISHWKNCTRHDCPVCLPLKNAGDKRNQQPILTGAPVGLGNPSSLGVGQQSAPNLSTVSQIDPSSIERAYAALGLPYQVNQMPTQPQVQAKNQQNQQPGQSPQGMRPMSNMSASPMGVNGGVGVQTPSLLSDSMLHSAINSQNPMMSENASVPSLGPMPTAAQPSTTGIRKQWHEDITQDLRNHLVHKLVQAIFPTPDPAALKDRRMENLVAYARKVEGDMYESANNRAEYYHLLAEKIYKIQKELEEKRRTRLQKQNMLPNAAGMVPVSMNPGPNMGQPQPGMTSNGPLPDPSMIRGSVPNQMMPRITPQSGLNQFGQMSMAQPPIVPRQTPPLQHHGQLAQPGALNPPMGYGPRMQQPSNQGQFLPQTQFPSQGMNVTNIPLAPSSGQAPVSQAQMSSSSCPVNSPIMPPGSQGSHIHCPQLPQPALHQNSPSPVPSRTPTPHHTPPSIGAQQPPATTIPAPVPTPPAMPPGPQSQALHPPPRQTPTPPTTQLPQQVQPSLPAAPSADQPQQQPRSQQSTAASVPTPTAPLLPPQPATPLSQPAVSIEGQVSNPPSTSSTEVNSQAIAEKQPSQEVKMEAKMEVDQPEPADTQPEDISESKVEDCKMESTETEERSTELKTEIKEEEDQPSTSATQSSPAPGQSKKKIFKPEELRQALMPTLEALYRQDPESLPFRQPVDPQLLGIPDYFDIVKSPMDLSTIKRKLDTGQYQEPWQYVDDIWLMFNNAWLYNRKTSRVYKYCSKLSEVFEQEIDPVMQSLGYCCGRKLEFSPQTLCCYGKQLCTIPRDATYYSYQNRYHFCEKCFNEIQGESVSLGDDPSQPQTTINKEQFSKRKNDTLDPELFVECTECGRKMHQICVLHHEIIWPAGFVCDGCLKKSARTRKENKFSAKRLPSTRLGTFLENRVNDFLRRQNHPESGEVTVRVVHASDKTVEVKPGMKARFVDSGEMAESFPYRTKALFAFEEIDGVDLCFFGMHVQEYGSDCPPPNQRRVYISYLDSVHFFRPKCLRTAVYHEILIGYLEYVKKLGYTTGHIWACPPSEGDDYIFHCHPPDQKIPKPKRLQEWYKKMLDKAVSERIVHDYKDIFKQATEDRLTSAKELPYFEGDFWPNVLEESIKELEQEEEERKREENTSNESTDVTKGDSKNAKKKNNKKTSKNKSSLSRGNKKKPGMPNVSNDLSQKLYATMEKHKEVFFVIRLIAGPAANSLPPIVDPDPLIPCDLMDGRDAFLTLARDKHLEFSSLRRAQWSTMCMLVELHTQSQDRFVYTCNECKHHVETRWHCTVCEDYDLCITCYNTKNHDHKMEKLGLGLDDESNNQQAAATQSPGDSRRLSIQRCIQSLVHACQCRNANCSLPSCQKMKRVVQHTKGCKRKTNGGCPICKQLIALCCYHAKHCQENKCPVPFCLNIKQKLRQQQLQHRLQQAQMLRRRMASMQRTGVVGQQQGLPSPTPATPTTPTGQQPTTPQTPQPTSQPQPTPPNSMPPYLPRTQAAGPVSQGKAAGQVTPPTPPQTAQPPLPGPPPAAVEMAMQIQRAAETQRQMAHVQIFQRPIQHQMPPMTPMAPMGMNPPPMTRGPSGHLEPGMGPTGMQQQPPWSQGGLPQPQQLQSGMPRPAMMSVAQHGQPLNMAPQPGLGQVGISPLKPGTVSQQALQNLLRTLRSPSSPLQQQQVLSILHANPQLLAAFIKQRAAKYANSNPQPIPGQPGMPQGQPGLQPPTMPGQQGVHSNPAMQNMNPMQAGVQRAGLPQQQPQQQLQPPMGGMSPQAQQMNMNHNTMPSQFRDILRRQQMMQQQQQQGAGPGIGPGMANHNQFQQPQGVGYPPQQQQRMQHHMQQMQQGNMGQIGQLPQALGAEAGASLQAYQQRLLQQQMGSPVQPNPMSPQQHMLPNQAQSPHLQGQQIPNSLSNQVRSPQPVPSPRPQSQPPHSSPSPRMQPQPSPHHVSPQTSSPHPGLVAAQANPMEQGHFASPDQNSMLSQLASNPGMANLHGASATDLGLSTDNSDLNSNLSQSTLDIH
UniProt O09106: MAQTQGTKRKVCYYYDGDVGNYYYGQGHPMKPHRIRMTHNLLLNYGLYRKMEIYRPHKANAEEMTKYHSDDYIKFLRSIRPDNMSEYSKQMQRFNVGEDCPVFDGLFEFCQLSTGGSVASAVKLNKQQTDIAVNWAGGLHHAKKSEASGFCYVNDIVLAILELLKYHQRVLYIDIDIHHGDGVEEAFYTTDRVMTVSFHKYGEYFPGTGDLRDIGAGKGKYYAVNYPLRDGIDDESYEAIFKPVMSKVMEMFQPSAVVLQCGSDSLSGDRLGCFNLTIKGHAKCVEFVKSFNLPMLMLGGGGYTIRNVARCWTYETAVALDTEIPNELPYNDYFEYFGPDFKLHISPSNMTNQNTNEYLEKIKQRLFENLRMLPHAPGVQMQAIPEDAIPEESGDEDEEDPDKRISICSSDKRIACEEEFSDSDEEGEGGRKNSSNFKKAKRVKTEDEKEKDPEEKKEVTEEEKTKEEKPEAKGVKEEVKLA

Key:
[1] = target: acetylated STAT3 (ac-STAT3), mouse liver (mouse (endogenous in liver)) (UniProt P42227); assay: co-IP; endogenous proteins, nucleus of mouse liver following partial hepatectomy
[2] = target: STAT3, human HCC tissue (human (endogenous in HCC tissue)) (UniProt P40763); assay: co-IP; endogenous proteins of human HDAC3-positive or HDAC3-negative HCC tissues

Row | binding [1] | binding [2] | Substance
1 | binds | – | HDAC2, mouse liver (from UniProt P70288 1-488) (enzyme)
2 | – | binds | p300, human HCC tissue (from UniProt Q09472 1-2414) (enzyme)
3 | binds | – | HDAC1, mouse liver (from UniProt O09106 1-482) (enzyme)
